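Luminescence from an EWS-FLI1 target-promoter (NR0B1) reporter, set against a CMV-promoter reporter, two days after silencing single genes in TC32 Ewing sarcoma cells. Each siRNA was applied at 20 nM. A z-score of the log NR0B1-over-CMV signal, less the median of siRNAs with the same seed; more negative means a stronger specific loss of the NR0B1 reporter.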

The strongest results of the screen are mostly left out here. Sequences are the guide (antisense) strand, without overhang.

AUAAGGUUUAGGGCAUUCU against KCNS2 gave seed-corrected z-score -0.2547. UCAGUAUUGAACAGAGGCC against POLD3 read seed-corrected z-score 0.5671. AGUGUUCCAAGCCCUCUCU against DUX4L16 read seed-corrected z-score 0.8664. Result for UACCAUACCAAUAUCCUGG against CLIP4 was seed-corrected z-score -0.1706.

With UUUGGUUUUAAUGCGUGGU against PRKCE the assay gave seed-corrected z-score 0.1986. UACUUGAUACAAUCGUCCC against SLC27A4 read seed-corrected z-score -0.4258. AAACUUAUAGUAAGAUGCC against SMG6 read seed-corrected z-score 0.01251. Result for UUCUUGCCCACACGAAUGC against ACSBG2 was seed-corrected z-score -0.7313.

UGCAGUCUCAGGAACAGCC against DMAP1 read seed-corrected z-score -0.1972. UCAUUCAUCCAUGCUAUUC against SLC18A1 gave seed-corrected z-score 0.6608. UCAGGAGCUGCACUAACUG against FAM109A gave seed-corrected z-score 1.709. With AGACCCACCAGAUAGGCCU against HIST1H3J the assay gave seed-corrected z-score 1.102.

ACAUCUACCACCACUGAGG against APEH gave seed-corrected z-score 0.0212. UCCAUAGAAAGCUCGAUCC against PELO gave seed-corrected z-score -0.8239. With UCCUUAAUCACCUCCAAGC against TRIM9 the assay gave seed-corrected z-score -0.1334. UUCAGAAUAAAACCGAGGG against PSORS1C2 gave seed-corrected z-score 0.2254.

For AAACCAGUUUCUGUACUGC against APOL1 the result was seed-corrected z-score 0.7808. Result for UUGAGAUUCAUCGAAAAAG against ESX1 was seed-corrected z-score 0.5668. Result for UGAUUUGUAAGAGAUGAUG against DRAM1 was seed-corrected z-score 1.548. AUCGGUAGCUGAUACAUUC against HYAL4 read seed-corrected z-score 0.7498.

For UGUGGUGAAAAGGAUGUCC against OR2AT4 the result was seed-corrected z-score -1.549. Result for UACUGAAUACUAUACAUCU against C6orf1 was seed-corrected z-score -0.5118. For UUCCUUAUCCAGUUGUAGC against FTSJ1 the result was seed-corrected z-score -0.2912. UCGUGUAAAACCAUAAGGA against AMY2B gave seed-corrected z-score -0.07224.

Result for AUAAUUGUCUGGACUAUAC against RSPH4A was seed-corrected z-score 1.852. For AAGUAGAUUAUCAUGAUUC against SYCP3 the result was seed-corrected z-score -0.7582. Result for UUUGAUACAAGUACUUCUG against SLC39A12 was seed-corrected z-score 0.5588. Result for AACGCGUAAGACAUGAUGC against SNX9 was seed-corrected z-score -0.1876.

UCCCUUGAAAGUGCGGAUG against LSM11 read seed-corrected z-score -0.4949. Result for AAACGGUAUGUUUUCGCUG against ALKBH4 was seed-corrected z-score -0.3766. For UCGGGUUCAUGGAAUGGCC against SPDYE2 the result was seed-corrected z-score 0.6993. For UCCAUUUUCUCGAAGAACC against KCNIP3 the result was seed-corrected z-score 0.2145.

Result for UUGGGUUUUAUGUGAAAGC against ZNF254 was seed-corrected z-score 0.452. Result for UUUUCGAUAGGAGACGAGC against DNMT3B was seed-corrected z-score 0.4461. With UAAAAUAGCAGGGAAAAUG against OR5M8 the assay gave seed-corrected z-score 0.206. Result for UAGGUAACACCGUCGAUGG against ITIH3 was seed-corrected z-score 0.6477.

UGCAAUUUAAGAUGCUCUG against RIMKLA read seed-corrected z-score -0.5691. With UUCUUUGCGGGUAUUAAUG against ZDHHC11B the assay gave seed-corrected z-score 0.3153. For UGUUCUUAGGUGGUCGUCC against MGA the result was seed-corrected z-score 0.2327. UUUGUAGCAACAGUCAUGA against PLA2G2A read seed-corrected z-score -1.975.

For UGACAGUCCUCCUACGUCC against SYT5 the result was seed-corrected z-score 0.425. For AAACUUGAUGGAGCUGUUC against TMEM259 the result was seed-corrected z-score 0.7092. UGAUCUUUCAGACUCCACC against RNF43 gave seed-corrected z-score -1.318. With UUUGGAUCAACCUUCUCGC against RP2 the assay gave seed-corrected z-score 1.099.

Result for AAUCUUGUUAGAUACCUCC against LPO was seed-corrected z-score -0.1025. For AUAGAUGACGGUACAGAGC against FITM1 the result was seed-corrected z-score 0.1327. Result for UGUCAGUAAUUUUUAAUCC against KRTAP1-5 was seed-corrected z-score 0.322.

For reference, 5 entries once more:

| Sequence | target gene | seed-corrected z-score |
|---|---|---|
| `UGUGGUGAAAAGGAUGUCC` | OR2AT4 | -1.549 |
| `UCGUGUAAAACCAUAAGGA` | AMY2B | -0.07224 |
| `UCCUUAAUCACCUCCAAGC` | TRIM9 | -0.1334 |
| `AGACCCACCAGAUAGGCCU` | HIST1H3J | 1.102 |
| `UCCAUAGAAAGCUCGAUCC` | PELO | -0.8239 |

The results are deposited in PubChem (AID1159506; NCATS, 2015).